Reference: PubChem BioAssay AID1259405 (NCATS, 2018)
Purpose: 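Mouse-designed siRNAs used to find CHO productivity engineering targets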 (primary screen). Cells: Chinese hamster CHO-K1 ovary cells with stable secreted eGFP expression. Reagents: single siRNA against mouse genes, 0.8 pmol siRNA per well (2 µl of 400 nM stock). Timing: 3 days. Measurement: 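Per-well intracellular GFP measured by laser scanning cytometry, plus viability from ATP luminescence, each relative to plate median of non-targeting control wells, in %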. Reading the numbers: GFP, % of control: higher = more GFP per well, higher productivity; viability (ATP), % of control: higher = more viable cells (more ATP). Rule for the call: 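a knock-down is called active if GFP reaches 120% or more of non-targeting control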.
In all, the deposit lists about 50,000 reagents; this is a part drawn at random. About 4,000 of all reagents (8%) count as active. 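Mouse siRNA library applied to hamster cells; one well for each siRNA.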 Reagent sequences are not shown.

target gene	PubChem SID	GFP, % of control	viability (ATP), % of control	outcome
Cables1 (CDK5 and Abl enzyme substrate 1)	SID363550127	77.2	87	inactive
Cables1 (CDK5 and Abl enzyme substrate 1)	SID363564636	63.7	31.9	inactive
Cables1 (CDK5 and Abl enzyme substrate 1)	SID363588181	97.7	121	inactive
Snx21 (sorting nexin family member 21)	SID363552422	46.5	62.6	inactive
Snx21 (sorting nexin family member 21)	SID363585558	90.4	91.6	inactive
Snx21 (sorting nexin family member 21)	SID363585909	87.7	73.2	inactive
Or5h19 (olfactory receptor family 5 subfamily H member 19)	SID363554329	83.6	99.8	inactive
Or5h19 (olfactory receptor family 5 subfamily H member 19)	SID363567776	71.7	74	inactive
Or5h19 (olfactory receptor family 5 subfamily H member 19)	SID363585133	52.8	91.9	inactive
Coasy (Coenzyme A synthase)	SID363570852	94	80.2	inactive
Akr1b7 (aldo-keto reductase family 1, member B7)	SID363545087	135	59.9	active
Akr1b7 (aldo-keto reductase family 1, member B7)	SID363548600	82.2	53.9	inactive
Akr1b7 (aldo-keto reductase family 1, member B7)	SID363562406	69.1	58.8	inactive
Ino80b (INO80 complex subunit B)	SID363540358	62	72.3	inactive
Ino80b (INO80 complex subunit B)	SID363542110	4.14	2.47	inactive
Ino80b (INO80 complex subunit B)	SID363567026	144	124	active
Defb23 (defensin beta 23)	SID363539700	65	88.7	inactive
Defb23 (defensin beta 23)	SID363561001	44.9	45.7	inactive
Defb23 (defensin beta 23)	SID363565091	106	87.1	inactive
Atp6v1b2 (ATPase, H+ transporting, lysosomal V1 subunit B2)	SID363574371	86.5	69.7	inactive
Atp6v1b2 (ATPase, H+ transporting, lysosomal V1 subunit B2)	SID363575427	45.3	79.5	inactive
Atp6v1b2 (ATPase, H+ transporting, lysosomal V1 subunit B2)	SID363580003	84.6	69.1	inactive
Ltbr (lymphotoxin B receptor)	SID363568818	80.3	80.7	inactive
Ltbr (lymphotoxin B receptor)	SID363576210	61.6	58.8	inactive
Ltbr (lymphotoxin B receptor)	SID363579026	44.5	60.2	inactive
B3gat1 (beta-1,3-glucuronyltransferase 1)	SID363570608	101	108	inactive
B3gat1 (beta-1,3-glucuronyltransferase 1)	SID363579408	78.3	117	inactive
B3gat1 (beta-1,3-glucuronyltransferase 1)	SID363583280	93.9	109	inactive
Cfp (complement factor properdin)	SID363554579	67.2	52.4	inactive
Cfp (complement factor properdin)	SID363568026	80.7	91.9	inactive
Cfp (complement factor properdin)	SID363586085	108	104	inactive
Hsp90b1 (heat shock protein 90, beta (Grp94), member 1)	SID363582545	87.7	117	inactive
Hsp90b1 (heat shock protein 90, beta (Grp94), member 1)	SID363584305	76.4	80	inactive
Or14j6 (olfactory receptor family 14 subfamily J member 6)	SID363544674	51.7	63.5	inactive
Or14j6 (olfactory receptor family 14 subfamily J member 6)	SID363551002	65.3	83.1	inactive
Or14j6 (olfactory receptor family 14 subfamily J member 6)	SID363557551	82.2	87.8	inactive
Diras1 (DIRAS family, GTP-binding RAS-like 1)	SID363570292	78	73.7	inactive
Diras1 (DIRAS family, GTP-binding RAS-like 1)	SID363576628	150	111	active
Diras1 (DIRAS family, GTP-binding RAS-like 1)	SID363579796	94.8	105	inactive
Dipk1a (divergent protein kinase domain 1A)	SID363543975	32.8	58.3	inactive
Dipk1a (divergent protein kinase domain 1A)	SID363551711	63.1	55.8	inactive
Dipk1a (divergent protein kinase domain 1A)	SID363559316	66.9	90.3	inactive
Tdpoz4 (TD and POZ domain containing 4)	SID363547232	63.5	71.7	inactive
Tdpoz4 (TD and POZ domain containing 4)	SID363558001	107	99.8	inactive
Tdpoz4 (TD and POZ domain containing 4)	SID363559759	89.5	88.4	inactive
Fgfrl1 (fibroblast growth factor receptor-like 1)	SID363544309	65.7	50	inactive
Fgfrl1 (fibroblast growth factor receptor-like 1)	SID363550637	55.8	92.3	inactive
Fgfrl1 (fibroblast growth factor receptor-like 1)	SID363557186	31.1	25.5	inactive
Tifab	SID363547042	83.9	103	inactive
Tifab	SID363549854	69.8	75.7	inactive
Tifab	SID363587908	112	107	inactive
Ca14 (carbonic anhydrase 14)	SID363569012	87.5	75.5	inactive
Ca14 (carbonic anhydrase 14)	SID363583444	58.9	66.2	inactive
Zbtb22 (zinc finger and BTB domain containing 22)	SID363556721	129	56	active
Zbtb22 (zinc finger and BTB domain containing 22)	SID363563625	98.6	83.2	inactive
Zbtb22 (zinc finger and BTB domain containing 22)	SID363587171	99.4	92.9	inactive
Impg2 (interphotoreceptor matrix proteoglycan 2)	SID363553868	68.2	71.9	inactive
Impg2 (interphotoreceptor matrix proteoglycan 2)	SID363561825	99.1	104	inactive
Impg2 (interphotoreceptor matrix proteoglycan 2)	SID363565563	69.9	65.8	inactive
Plpbp (pyridoxal phosphate binding protein)	SID363584546	65.6	79.7	inactive
Plpbp (pyridoxal phosphate binding protein)	SID363589576	85.2	80.9	inactive
Atpsckmt (ATP synthase C subunit lysine N-methyltransferase)	SID363542647	95.9	61.2	inactive
Atpsckmt (ATP synthase C subunit lysine N-methyltransferase)	SID363546164	78.5	77.2	inactive
Atpsckmt (ATP synthase C subunit lysine N-methyltransferase)	SID363547920	69.2	66.8	inactive
Adarb1 (adenosine deaminase, RNA-specific, B1)	SID363545723	46.5	63.2	inactive
Adarb1 (adenosine deaminase, RNA-specific, B1)	SID363549236	83.7	101	inactive
Adarb1 (adenosine deaminase, RNA-specific, B1)	SID363563042	61.3	45.3	inactive
Ngfr (nerve growth factor receptor (TNFR superfamily, member 16))	SID363568866	171	74.6	active
Ngfr (nerve growth factor receptor (TNFR superfamily, member 16))	SID363576258	69.6	88	inactive
Ngfr (nerve growth factor receptor (TNFR superfamily, member 16))	SID363579074	87.2	86.2	inactive
Deptor (DEP domain containing MTOR-interacting protein)	SID363539753	87.1	90.5	inactive
Deptor (DEP domain containing MTOR-interacting protein)	SID363561054	101	61.8	inactive
Deptor (DEP domain containing MTOR-interacting protein)	SID363565144	80	34.8	inactive
Or6f1 (olfactory receptor family 6 subfamily F member 1)	SID363544570	72.3	85.4	inactive
Or6f1 (olfactory receptor family 6 subfamily F member 1)	SID363550898	98.6	77	inactive
Or6f1 (olfactory receptor family 6 subfamily F member 1)	SID363557447	63	62.3	inactive
Cct3 (chaperonin containing TCP1 subunit 3)	SID363541670	76.4	66.7	inactive
Cct3 (chaperonin containing TCP1 subunit 3)	SID363553262	56.4	48.8	inactive
Cct3 (chaperonin containing TCP1 subunit 3)	SID363566586	83	40.3	inactive
Uri1 (URI1, prefoldin-like chaperone)	SID363550086	95.8	73	inactive
Uri1 (URI1, prefoldin-like chaperone)	SID363564595	64.2	69.7	inactive
Uri1 (URI1, prefoldin-like chaperone)	SID363588140	104	95.9	inactive
Riok2 (RIO kinase 2)	SID363570746	46.1	52.3	inactive
D830050J10Rik (RIKEN cDNA D830050J10 gene)	SID363539808	64.6	75.1	inactive
D830050J10Rik (RIKEN cDNA D830050J10 gene)	SID363561109	50.6	75.3	inactive
D830050J10Rik (RIKEN cDNA D830050J10 gene)	SID363565199	57.8	58.9	inactive
Gmcl1 (germ cell-less, spermatogenesis associated 1)	SID363540107	55.7	68.3	inactive
Gmcl1 (germ cell-less, spermatogenesis associated 1)	SID363561408	95.8	89.2	inactive
Gmcl1 (germ cell-less, spermatogenesis associated 1)	SID363564444	45.9	63.4	inactive
Polr3gl (polymerase (RNA) III (DNA directed) polypeptide G like)	SID363545703	71.6	99.5	inactive
Polr3gl (polymerase (RNA) III (DNA directed) polypeptide G like)	SID363549216	95.2	70.6	inactive
Polr3gl (polymerase (RNA) III (DNA directed) polypeptide G like)	SID363563022	49	67.4	inactive
Golt1b (golgi transport 1B)	SID363543417	98.2	74.4	inactive
Golt1b (golgi transport 1B)	SID363552910	103	83.9	inactive
Golt1b (golgi transport 1B)	SID363558758	74.4	71.9	inactive
Rps3a1 (ribosomal protein S3A1)	SID363553899	40.9	27.1	inactive
Rps3a1 (ribosomal protein S3A1)	SID363561856	65.4	69.1	inactive
Rps3a1 (ribosomal protein S3A1)	SID363565594	37.8	23.6	inactive
Fam177a (family with sequence similarity 177, member A)	SID363543414	48.1	60.7	inactive
Fam177a (family with sequence similarity 177, member A)	SID363552907	91	74.4	inactive
Fam177a (family with sequence similarity 177, member A)	SID363558755	40.9	54.3	inactive
Ebf2 (early B cell factor 2)	SID363539608	103	85.5	inactive
Ebf2 (early B cell factor 2)	SID363560909	203	130	active
Ebf2 (early B cell factor 2)	SID363564999	91.1	77	inactive
Pex12 (peroxisomal biogenesis factor 12)	SID363569662	53.8	74.8	inactive
Pex12 (peroxisomal biogenesis factor 12)	SID363576702	58.4	73.4	inactive
Pex12 (peroxisomal biogenesis factor 12)	SID363578110	189	140	active

10 of these entries in another layout.
{"target gene":"Riok2 (RIO kinase 2)","PubChem SID":"SID363570746","GFP, % of control":46.1,"viability (ATP), % of control":52.3,"outcome":"inactive"}
{"target gene":"D830050J10Rik (RIKEN cDNA D830050J10 gene)","PubChem SID":"SID363539808","GFP, % of control":64.6,"viability (ATP), % of control":75.1,"outcome":"inactive"}
{"target gene":"D830050J10Rik (RIKEN cDNA D830050J10 gene)","PubChem SID":"SID363561109","GFP, % of control":50.6,"viability (ATP), % of control":75.3,"outcome":"inactive"}
{"target gene":"D830050J10Rik (RIKEN cDNA D830050J10 gene)","PubChem SID":"SID363565199","GFP, % of control":57.8,"viability (ATP), % of control":58.9,"outcome":"inactive"}
{"target gene":"Gmcl1 (germ cell-less, spermatogenesis associated 1)","PubChem SID":"SID363540107","GFP, % of control":55.7,"viability (ATP), % of control":68.3,"outcome":"inactive"}
{"target gene":"Gmcl1 (germ cell-less, spermatogenesis associated 1)","PubChem SID":"SID363561408","GFP, % of control":95.8,"viability (ATP), % of control":89.2,"outcome":"inactive"}
{"target gene":"Gmcl1 (germ cell-less, spermatogenesis associated 1)","PubChem SID":"SID363564444","GFP, % of control":45.9,"viability (ATP), % of control":63.4,"outcome":"inactive"}
{"target gene":"Polr3gl (polymerase (RNA) III (DNA directed) polypeptide G like)","PubChem SID":"SID363545703","GFP, % of control":71.6,"viability (ATP), % of control":99.5,"outcome":"inactive"}
{"target gene":"Polr3gl (polymerase (RNA) III (DNA directed) polypeptide G like)","PubChem SID":"SID363549216","GFP, % of control":95.2,"viability (ATP), % of control":70.6,"outcome":"inactive"}
{"target gene":"Polr3gl (polymerase (RNA) III (DNA directed) polypeptide G like)","PubChem SID":"SID363563022","GFP, % of control":49,"viability (ATP), % of control":67.4,"outcome":"inactive"}
